# PubChem BioAssay AID1508600 (Functional Genomics Laboratory (NCATS/FGL), 2020)
# The whole screen tested about 53,000 sequences, of which about 3,700 (7%) were called active.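 How the source made its calls: active means gene knockdowns whose robust z-score for IL-1 alpha signal is at least 2 or at most -2, so actives lie on both sides; inactive means the rest.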 Some of the results follow.
# Assay: Components of the Cytosolic LPS Sensing Pathway: Gene Identification via Genome-wide siRNA Screen;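 further: robust z of the log signal after scaling to non-targeting control siRNA wells of the plate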
# Conditions: RAW264.7 macrophages, IL-1a HTRF, actives lie on both sides, screened at 100 nM (by protocol), cells primed 5 h with Pam3CSK4 first
# Summary of the method: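 Three distinct siRNAs per gene were tested singly at 100 nM in RAW264.7 macrophages. Following Pam3CSK4 priming and 24 hour LipidA transfection, IL-1a secretion was read by HTRF.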
row,Sequence,z-score
1,GGACCCAAUAAAACUUCCGTT against Ttc36,inactive: 1.13
2,GGUCUAAUAUAAACGGGCCTT against Ppp4r2,inactive: -0.561
3,GGAUCCAUGCUGUCAGUGGTT against Sftpa1,active: 2.17
4,CCGACUACGUCAAUUGGUUTT against Fbxo21,inactive: 0.148
5,GGAAGACCAGCACUUGAAATT against Klhl13,inactive: 1.52
6,GGCUGAAAAGGAAAAUCCATT against Pdcd10,inactive: 0.141
7,GCCUCCAUGGGAAAUCAAGTT against Zfp37,inactive: -0.151
8,GCAGAUGCUAACAUAUCCATT against Trim32,inactive: -0.902
9,GGUUUUUUGGUACCAAGUGTT against Unc93b1,inactive: -0.71
10,CGAUGUUGGUAUUACUGUUTT against Armcx5,inactive: 1.24
11,GGUUGUCCCACAUACUUCCTT against Nr1d1,inactive: -0.0524
12,GGCAUUGGUGUUUCAUUAATT against Gpm6a,inactive: 1.2
13,GGAAGACGACACUGUGUGGTT against Reep6,inactive: 0.534
14,GGCCAUGGAAAAGUUCCGUTT against Kcna3,inactive: -0.525
15,GGCUGUAGUGGUGCUAAUUTT against Slc10a2,inactive: 1.12
16,CGAUUUCACAAAAACAUGATT against Vta1,inactive: -0.394
17,CCCAAAGUGGUAUCCAAAGTT against 6030498E09Rik,inactive: 1.01
18,GCCAAGCAUUGGAACCAUGTT against Prss46,inactive: 1.06
19,GCCAACUGGAUAUUAACAATT against Dnm1l,inactive: 1.02
20,GGAUGGUUACAAAAGAGAUTT against Dspp,inactive: -0.85
21,GCCACGUUCCUCAUCGAUUTT against Plscr3,inactive: -0.618
22,GGAGUAUGCUCAGGUGAUCTT against Eif1a,inactive: 0.886

row,Sequence,z-score
1,CCAACGUGAGCAUAUUAUATT against Adcy2,inactive: 0.0638
2,GGAAAUGGUGCAGAAAACCTT against Marchf6,inactive: 0.666
3,GGACAUUAGAGAUUUCCGATT against Isyna1,inactive: -1.52
4,CCAUAUCUUUAGCUCCACATT against Pate14,inactive: -0.501
5,GGCUGGAGUCAAAGGAAAGTT against Nudt4,inactive: 1.81
6,GGCUCUUGAUACGAAUGUATT against Aadac,inactive: -0.44
7,CGAAGUAUUUGGUGGACCATT against Tmem254a,inactive: -0.457
8,GGAUUUGGGUUUUCUAUAATT against Cfb,inactive: -0.0373
9,CCAACUACACACUACGCAUTT against Grik5,inactive: -0.00669
10,GGGACUUCCAAGGAAAGUGTT against Dbi,inactive: 1.28
11,CGAUCUGCUAUCAUAAGCATT against A630005I04Rik,inactive: -1.1
12,GGAUGUGAUGAAGUUGGCCTT against Olfr78,inactive: -1.96
13,GGUGCCUCUUAAAUAAAAATT against Efcab8,inactive: 0.00992
14,GGUACUUUGUGGGAGAAGATT against Actrt1,inactive: 0.835
15,GGAAACUACAAAUUUGGCATT against Krtap6-2,inactive: 0.195
16,GGAACUGGUCUCAGAAGAGTT against Cd79b,inactive: -0.675
17,GGCUGUCUAUAAGAAUGUUTT against Nup210,inactive: -0.812
18,GGAGGAAGAGAUUUUAAACTT against Rps8,inactive: 0.158
19,GGGCACAGGAUCGUAUGAATT against Ncs1,inactive: 0.187
20,GGACAACAAAUUUCGACUATT against Trappc6b,inactive: 0.111
21,GGUUUUUUAAGUUCAGCCGTT against Got2,inactive: -0.748
22,GCCCAGAAUGCAAGAAAUATT against Scgb2b26,inactive: 0.112

# Three consecutive entries from above, for reference:
row,Sequence,z-score
15,GGAAACUACAAAUUUGGCATT against Krtap6-2,inactive: 0.195
16,GGAACUGGUCUCAGAAGAGTT against Cd79b,inactive: -0.675
17,GGCUGUCUAUAAGAAUGUUTT against Nup210,inactive: -0.812

# (cont.)

row,Sequence,z-score
1,GGUUUUCAUAAAUCUCAGCTT against Tns4,inactive: -0.291
2,GGGAUUCUGUCCUUGGUCATT against Havcr2,inactive: -1.04
3,CCGUUUACCAACCAAGAAUTT against Tnfrsf17,inactive: 0.0608
4,GGCUGCCAGUCAACUUUCUTT against Krtap14,inactive: 0.371
5,GCUUAAACUACAGCCCGAGTT against Spag5,inactive: -0.907
6,GCUUUGACUACGAGGAUUATT against Ets1,inactive: -0.15
7,GGGUUUUAGAAUUGCUCUUTT against Tst,inactive: 0.109
8,GGACCUGUCUGAAGACUUGTT against Asf1a,inactive: 0.341
9,CGAUCUUGAUUAGUUUCAUTT against Plp1,inactive: 1.42
10,GCGAGUUGGAAUUGAGAUCTT against Casp8,inactive: 0.273
11,GCUACACCAUUGUAAGAAGTT against Gypa,inactive: 0.587
12,GGCUACUUCAUGCUGUAUATT against Bcs1l,inactive: 0.785
13,GGAUGUCCCGAAGCUAAGGTT against Ggnbp1,inactive: 0.321
14,GGAAGAAGUAGAGAUGCUATT against Myl6,inactive: 1.78
15,GCUCUGUCCAUUCCAUAAGTT against Crispld1,inactive: 0.27
16,GGAAAACCAUGAAGCCAUGTT against Dnase1l3,inactive: 0.69
17,GCAGAAUAGCUGAUGACAGTT against Galnt15,inactive: -0.155
18,GCAACGGAGGGUCAUUUCATT against Wipf2,active: 2.54
19,GGAGAGUAACAAUUAUGAATT against Pcdha9,inactive: 0.983
20,GGCAACAAAAAAAUCCCAATT against Cd160,inactive: -0.647
21,GCUAGUUUGACAGAGGCCUTT against Prelp,inactive: -0.404
22,GGAAGUAGGAGAGGAAAGUTT against D930020B18Rik,inactive: 0.766

# Random excerpt: four entries already listed
row,Sequence,z-score
5,GCUUAAACUACAGCCCGAGTT against Spag5,inactive: -0.907
2,GGAAAUGGUGCAGAAAACCTT against Marchf6,inactive: 0.666
20,GGACAACAAAUUUCGACUATT against Trappc6b,inactive: 0.111
10,GCGAGUUGGAAUUGAGAUCTT against Casp8,inactive: 0.273

# Next part:

row,Sequence,z-score
1,GGGCAUGUAUCCGAUUAGATT against Tprgl,inactive: 0.171
2,GGACUCCAAACCUAAGUGATT against Rpl39l,inactive: -0.464
3,GGGAAAGAAUGGUAUUGUATT against Rmnd5a,inactive: -0.0117
4,CCAUAUGUAAAGUGAAACATT against A530013C23Rik,inactive: -0.346
5,GGCCAUCAGAGUCAACUGUTT against Immt,inactive: -0.285
6,GGUCACUGCUAAAGCCUGATT against Stoml3,inactive: 0.864
7,GGUAUGUUUUUCUCACAAGTT against Ehd4,inactive: 0.417
8,GGCUGUUUUUACCCUACUUTT against Vmn1r72,inactive: -0.441
9,GUAAACCACUGAAAAACCATT against Siah1b,inactive: 0.0622
10,GGACAACUCCCAUAGCCAUTT against Sin3b,inactive: -0.338
11,GGCUCGGGUCUUUAACGAATT against Copg1,inactive: 0.559
12,GGCUACAACCUGAAAGAUGTT against Ppp2r2b,inactive: -1.11
13,GGCUGUAUACCAAUAAAAATT against B4galt6,inactive: -0.855
14,CGCGCAUCCAGGUUAUCUUTT against Slc7a10,inactive: 0.596
15,GGAGGAUGUCUUACCAUGGTT against Bhlha9,inactive: -0.417
16,GGAAGUGGGCAGCAUCAUUTT against Pcbp4,inactive: 0.73
17,GGAGACUGUGUUUACAGUATT against Olfr347,inactive: 0.686
18,GGCUACUGUAAGAUUUCUATT against Mgat4f,inactive: 1.98
19,GGGUCUAUGAGCUAAUUAUTT against Psmd5,inactive: 1.12
20,GCAUUACUAUGAGCGGGACTT against Pygb,inactive: 0.307
21,GGAAAAGAAGCCAAUUCCUTT against Smpx,inactive: 0.92
22,CCUGGUUAGAGAAUGGAAATT against Sirpb1a,inactive: -0.802

row,Sequence,z-score
1,GCAUGUUCCAUGGAUUUUATT against Slfn10-ps,inactive: -1.68
2,GGUCAAUGCUGUUUUUGUUTT against Mxi1,active: 2.41
3,GCACGUUGAACAAUGAAGATT against Unc13a,inactive: -0.229
4,GGUUCAAGUUCGCAUACAGTT against Rnf111,inactive: 1.95
5,AUCUCGUCUUUGGUUAAUATT against Vmn1r64,inactive: -0.95
6,GGAUGUUAAACUACAUUGATT against Ropn1,inactive: -0.051
7,GGAAAAGAAGAAGCAGAUUTT against Incenp,inactive: -1.11
8,GCUGCUUUAGCUUAGUUUUTT against Vwa7,inactive: 0.457
9,GGUCUUCAGACCAGAAACATT against Hsd3b2,active: -3.19
10,GCCAUUACCCGGUAUAUGATT against Sesn1,inactive: -1.96
11,GCCUAUAAAACCUUUGCCUTT against Loxl2,inactive: -0.918
12,CCCUGUAAUCAGUAGAAGATT against Afap1l2,inactive: -0.752
13,CCUUUUGAAUGAUAGGGUGTT against Tbcd,inactive: 0.142
14,GCUGAUGGCACUAAACACUTT against Glb1l2,inactive: 1.18
15,GGCUUCAAAACAUUUUCAGTT against Kansl1l,active: 2.81
16,GCCUCACUUGAUGAAAUGGTT against Sccpdh,active: -2.13
17,GGAUCUACGCAAGCAAGCATT against Oxnad1,active: 2.12
18,GCUUCUAUGGCAGGAUAAATT against Cd28,inactive: -1.07
19,CCUACUGACGACUCUUAUATT against Vmn2r10,inactive: -0.211
